# Values from PubChem BioAssay AID1159584 (Peter MacCallum Cancer Centre, 2016)
# Screen: 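Genes that CDH1-null MCF10A cells selectively depend on to survive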 (primary screen)
# System: human MCF10A breast epithelial cells, parental and CDH1-null
# Reagents: siRNA against human genes
# Measurement: 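Cell viability by CellTiter-Glo ATP luminescence, each line scaled to the mean of mock wells across plates, then CDH1-null over parental ratio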
# Reading the numbers: CDH1-null / parental viability ratio: higher = CDH1-null cells survive relatively better than parental; CDH1-null viability vs mock: higher = more viable CDH1-null cells; parental viability vs mock: higher = more viable parental cells
# Here is a random part of about 18,000 deposited reagents. No sequences are given here. Not stated in the record: the amount of reagent, the time to read-out.
The first 2 entries, ahead of the listing:
gene symbol,CDH1-null / parental viability ratio,CDH1-null viability vs mock (fraction of mock),parental viability vs mock (fraction of mock)
ZNF43,0.74,0.54,0.73
ABHD12B,1.24,1.02,0.82

The list itself, from the start:
gene symbol,CDH1-null / parental viability ratio,CDH1-null viability vs mock (fraction of mock),parental viability vs mock (fraction of mock)
ZNF43,0.74,0.54,0.73
ABHD12B,1.24,1.02,0.82
TRDMT1,0.99,0.86,0.87
LCN1,0.97,0.88,0.91
NELFCD,0.69,0.5,0.72
CYB561A3,2,0.6,0.3
QTRT2,1.07,0.77,0.72
NPDC1,1.05,0.97,0.92
PPP1R14D,1.14,0.91,0.8
SLC7A1,1.28,1.13,0.88
CIROZ,1.05,0.65,0.62
NEUROD6,1.25,0.5,0.4
GSTM2,0.95,0.7,0.74
TTLL5,0.64,0.5,0.78
POM121L2,1,0.57,0.57
GALNS,0.69,0.62,0.9
PIWIL1,0.82,0.61,0.74
OXER1,0.99,0.97,0.98
SLC25A16,1.14,0.89,0.78
ANAPC1,1.28,0.82,0.64
RTN4R,1.18,0.8,0.68
OR14K1,0.81,0.62,0.77
C6,0.98,0.9,0.92
DDX24,0.99,0.66,0.67
PTGES,0.97,0.97,1
GDF7,1.17,1.01,0.86
HLA-DQA2,1.06,0.56,0.53
ITLN1,1.1,0.96,0.87
SHMT1,1.15,1.08,0.94
RNF19B,0.88,0.86,0.98
RNF207,0.99,0.71,0.72
TMEM252,0.88,0.56,0.64
KRIT1,0.92,0.83,0.9
AQP12A,1.07,0.6,0.56
TMEM164,1.74,0.33,0.19
PTTG2,1.12,0.64,0.57
CDK11A,1.03,0.38,0.37
SETD3,0.96,0.54,0.56
CSMD2,1,0.85,0.85
MYCBPAP,0.81,0.44,0.54
TP53I13,1.25,0.55,0.44
PILRB,0.84,0.56,0.67
LOXL3,0.95,0.72,0.76
POLE3,1,0.64,0.64
BNIP5,1.01,0.75,0.74
SNHG32,1.02,0.94,0.92
SLC25A47,0.92,0.61,0.66
RBAK,1.12,1.17,1.04
ASCC2,1.03,0.78,0.76
CNTROB,1.15,0.84,0.73
GTF2H2C_2,1.25,1,0.8
DNAAF1,1.04,0.85,0.82
PHOX2A,1.22,1.07,0.88
FOXN1,0.93,0.84,0.9
GAS2L1,0.89,0.55,0.62
RANBP6,1.07,0.92,0.86
CYP11B1,0.66,0.46,0.7
CCDC116,0.99,0.8,0.81
TIGD6,0.64,0.48,0.75
BRMS1,1.65,0.66,0.4
LYPLAL1,1.07,1.01,0.94
TRAM1L1,1.25,0.85,0.68
DPEP1,1.32,0.82,0.62
GUSB,0.96,0.79,0.82
INTS10,0.92,0.57,0.62
LYRM9,0.84,0.72,0.86
AARSD1,0.84,0.64,0.76
B9D1,0.95,0.61,0.64
